PubChem BioAssay AID602196 | INSERM | 2012
The deposit covers about 23,000 reagents; below is an unselected part. Of all reagents, 455 (2%) got an active call. 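Active includes both protection and sensitisation; some change values fall well beyond the stated -50 to +50 range.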 Entries without a mark were called inactive. Not all columns of the deposit are shown. Reagent sequences are not shown. The record does not give: the amount of reagent.

Test: 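Modifiers of cisplatin sensitivity in A549 cells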
Cell system: human A549 lung cancer cells
Knock-down reagent: siRNA pair against human genes
Duration: 48 h transfection before cisplatin; time from cisplatin to read-out not stated
Conditions: cisplatin at a dose killing half of control-siRNA cells; exact dose and duration not given
Detection: 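Shift in cisplatin death relative to control siRNA, from -50 (all cells die) to +50 (no cells die); siRNAs harmful on their own scored 0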
Scale: two-siRNA summed score (-2 to +2): higher = both siRNAs protect from cisplatin killing; -2 means both sensitise
Active means: 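Each siRNA scores 0 if harmful alone by LDH or WST-1, otherwise +1 if it reduces and -1 if it increases cisplatin killing; a gene is active when both siRNAs agree (sum +2 or -2)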
Calls: active = both siRNAs shift cisplatin killing the same way; inactive = no consistent shift, or siRNA harmful alone

ANKRD27 gave two-siRNA summed score (-2 to +2) = 0.
Against LOC441134, the entry reads two-siRNA summed score (-2 to +2) = 0.
Against LOC440747 the deposit lists two-siRNA summed score (-2 to +2) = 1.
With knock-down of CLIC3, the record shows two-siRNA summed score (-2 to +2) = 0.
RP1L1 showed two-siRNA summed score (-2 to +2) = 0.

Ordered by “two-siRNA summed score (-2 to +2)” (high to low): some entries from above.
LOC440747 — two-siRNA summed score (-2 to +2) = 1
CLIC3 — two-siRNA summed score (-2 to +2) = 0

Continued.
For LOC442004, the values are two-siRNA summed score (-2 to +2) = 0.
Silencing of ZNF37A gave: two-siRNA summed score (-2 to +2) = 0.
DSC3 showed two-siRNA summed score (-2 to +2) = 0.
With knock-down of INTS4P1 the results were two-siRNA summed score (-2 to +2) = 0.
NOMO1 gave two-siRNA summed score (-2 to +2) = 0.
Against KCNK17 the deposit lists two-siRNA summed score (-2 to +2) = 0.
For AP2A1 the deposit lists two-siRNA summed score (-2 to +2) = 0.
